Results taken from doi:10.1101/2022.07.02.498517.
Where two headings read alike, the source gives them in different places. No constants are given. Whether binding was seen depends on the method and setting. Some entries that bind do so weakly or less than the wild type.

Amino acid sequences for entries named in this document (tags omitted). A change or cut given only in a name is not applied to a line headed by its entry.
UniProt P07251: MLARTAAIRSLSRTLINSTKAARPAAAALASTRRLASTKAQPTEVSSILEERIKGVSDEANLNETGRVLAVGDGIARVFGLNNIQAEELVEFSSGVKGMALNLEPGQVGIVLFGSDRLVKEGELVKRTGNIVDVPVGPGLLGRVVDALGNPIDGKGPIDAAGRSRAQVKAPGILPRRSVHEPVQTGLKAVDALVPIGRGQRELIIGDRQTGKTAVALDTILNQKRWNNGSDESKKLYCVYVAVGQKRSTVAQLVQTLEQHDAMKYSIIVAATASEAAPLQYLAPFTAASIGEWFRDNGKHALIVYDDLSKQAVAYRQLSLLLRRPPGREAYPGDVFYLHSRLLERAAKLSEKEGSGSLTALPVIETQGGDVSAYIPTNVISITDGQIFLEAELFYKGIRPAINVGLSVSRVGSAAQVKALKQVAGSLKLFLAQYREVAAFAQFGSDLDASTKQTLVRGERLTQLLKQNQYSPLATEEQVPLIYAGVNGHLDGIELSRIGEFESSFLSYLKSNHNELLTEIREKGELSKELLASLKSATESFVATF

Assays:
Assay in all cases: native gel or EMSA
[1] = target: S. cerevisiae mitochondrial ATP synthase complex (monomer) (S. cerevisiae) (UniProt P07251)
[2] = target: S. cerevisiae mitochondrial ATP synthase complex (monomer) (S. cerevisiae) (UniProt P07251); remark: listed apart in the source
[3] = target: S. cerevisiae mitochondrial ATP synthase complex (monomer) (S. cerevisiae) (UniProt P07251); remark: listed apart in the source
[4] = target: S. cerevisiae mitochondrial ATP synthase complex (monomer) (S. cerevisiae) (UniProt P07251); remark: listed apart in the source
[5] = target: S. cerevisiae mitochondrial ATP synthase complex (monomer) (S. cerevisiae) (UniProt P07251); remark: listed apart in the source

B1: Atp19 (subunit k) (protein, UniProt P81451 1-68)
chain: MGAAYHFMGKAIPPHQLAIGTLGLLGLLVVPNPFKSAKPKTVDIKTDNKDEEKFIENYLKKHSEKQDA
**Q.** How did the binding [1] turn out when B1 was run?
**A.** Its binding is “binds”.

**Q.** And the binding [2]?
**A.** Its binding is “binds”.

**Q.** And the binding [3]?
**A.** Its binding is “binds”.

B2: Atp20 (subunit g) (protein, UniProt Q12233 1-115)
chain: MLSRIQNYTSGLVSKANLLSSKALYYGKVGAEISKQIYLKEGLQPPTVAQFKSVYSNLYKQSLNFALKPTEVLSCLKNIQKNELLKYGAYGIQLIGFYSVGEIIGRRKLVGYKHH
**Q.** How did the binding [1] turn out when B2 was run?
**A.** Its binding is “binds”.

**Q.** And the binding [2]?
**A.** The binding was “binds”.

B3: Atp21 (subunit e) (protein, UniProt P81449 1-96)
chain: MSTVNVLRYSALGLGLFFGFRNDMILKCNAKKKEEQAQYEEKLKLVEEAKKEYAKLHPVVTPKDVPANASFNLEDPNIDFERVILNAVESLKEAST
**Q.** Which results are given for B3?
**A.** binding [1]: binds; binding [2]: binds

B4: chaperonin Hsp10 (S. cerevisiae) (protein, UniProt P38910 1-106)
chain: MSTLLKSAKSIVPLMDRVLVQRIKAQAKTASGLYLPEKNVEKLNQAEVVAVGPGFTDANGNKVVPQVKVGDQVLIPQFGGSTIKLGNDDEVILFRDAEILAKIAKD
**Q.** Which results are given for B4?
**A.** binding [1]: binds; binding [2]: binds

B5: Mic10 (protein, UniProt Q96VH5 1-97)
chain: MSEQAQTQQPAKSTPSKDSNKNGSSVSTILDTKWDIVLSNMLVKTAMGFGVGVFTSVLFFKRRAFPVWLGIGFGVGRGYAEGDAIFRSSAGLRSSKV
**Q.** With B5 as the binder, how does the binding [1] read?
**A.** The binding was “binds”.

**Q.** What about the binding [2] of the same binder?
**A.** The binding was “binds”.

B6: Mco10 (Mitochondrial class one protein of 10 kDa) (protein, UniProt Q3E824 1-90)
chain: MGAAYKVFGKTVQPHVLAISTFIATAAVASYFTTKPKTKNEGKNSSALSQQKSGESSNSDAMGKDDDVVKSIEGFLNDLEKDTRQDTKAN
**Q.** For B6, which binding [1] is on record?
**A.** Its binding is “binds”.

**Q.** And the binding [4]?
**A.** Its binding is “binds”.

**Q.** And the binding [5]?
**A.** Its binding is “binds”.

B7: ATPase activity inhibitor protein Inh1 (protein, UniProt P01097 23-85)
chain: SEGSTGTPRGSGSEDSFVKRERATEDFFVRQREKEQLRHLKEQLEKQRKKIDSLENKIDSMTK
**Q.** Which binding [1] does the source give for B7 here?
**A.** Its binding is “binds”.
